Laboratory results reported in paper PMC7948415.
Results are given in words; binding and its absence hold for the method and conditions named.

Experiments:
[1] = target: albicin (Anopheles albimanus); experiment: SEC; Superdex 75 gel filtration of the purified recombinant SG7 proteins; both purified
[2] = target: SG7.AF (Anopheles freeborni) (UniProt C0HMB5); experiment: as above

B1: albicin (protein, UniProt A0A1Y9G8D0 27-142)
chain: ANNHIRTVLKLFRTIDLDDSKKSFYLTAAKYGIQTQLREPIIRIVGGYLPSTKLSEACVKNMISEVYEIEGDFYSKFSYACEDHAPYSVECLEDARDDYLTQLVELFKETKKCLRE
B1 was tested, and the binding [1] was “no binding”.

B2: SG7.AF (protein, UniProt C0HMB5 1-119)
chain: ARKHVQELLKTFRRIDFDETRKSVYLQSAKFGVQSQLREPLTKKVLNYWDDVKLSKTCLDRMVTKVNDVKETFYAGFSYACESHNQYSVDCLEAAKPSYLTALGEIRGETEKCLTTRLK
B2 was tested, and the binding [2] was “no binding”.
